Measured values: PubChem BioAssay AID328 (DTP/NCI, 2004)
The list is a part of this screen's results and no random one: it gathers tests that were run many times, whatever their T/C, doses with no T/C, and many T/C values between a quarter and a half above the control. Other doses and runs of a compound stand elsewhere. T/C: endpoint of the treated group in % of that of the vehicle group. Some entries give survivors of the animals treated and no T/C: the source files T/C as zero there, which appears to mark a toxic dose or a test without result, not a measured value. Some survivor counts are full or nearly so, which does not show that the dose was tolerated: the source hardly ever lists a survival T/C far under the control, and the zero likely stands for such cases as well. Survivors were counted at the toxicity check, usually on the fifth day, unless a day is given; later deaths do not show. Schedules are NCI's codes, read here as Q, the interval in days (D) or hours (H), X, the number of doses. Some entries were tested several times; the values are given in rising order. Where survival is the endpoint, the PubChem record calls one and a half times the control and up active, and a quarter to a half above the control has no call in these data; cut-offs in other NCI protocols can differ. Some T/C values are followed by the survivors on the day toxicity was checked, most often the fifth; without a count, all were alive then.

Test system: BDF1 mice, P388 leukemia ip, median survival T/C
Assay: NCI In Vivo Anticancer Drug Screen. Data for tumor model P388 Leukemia (intraperitoneal) in B6D2F1 (BDF1) mice
Details: T/C endpoint: median survival time, higher T/C = longer survival
Outline: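 In tumour-bearing mice, survival after compound treatment is set against the vehicle group and given as a quotient.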

[1] = dose: 100.0 mg/kg/injection, schedule: Q01DX009 (ip), vehicle: saline with Tween-80
[2] = dose: 400.0 mg/kg/injection, schedule: Q04DX003 (ip), vehicle: saline with Tween-80
[3] = dose: 50.0 mg/kg/injection, schedule: Q01DX009 (ip), vehicle: Klucel (hydroxypropylcellulose) (HPC)
[4] = dose: 100.0 mg/kg/injection, schedule: Q01DX009 (ip), vehicle: Klucel (hydroxypropylcellulose) (HPC)

NC(=S)N/N=C/c1cc(-c2cccc(N)c2)ccn1
T/C (dose: 6.25 mg/kg/injection, schedule: Q01DX009 (ip), vehicle: saline with Tween-80): 146 % of control | survivor count [1]: 6 of 6

C=CCn1cnc2c(=S)nc[nH]c21
survivor count (dose: 50.0 mg/kg/injection, schedule: Q01DX009 (ip), vehicle: saline with Tween-80): 6 of 6 | survivor count [1]: 6 of 6 | survivor count (dose: 200.0 mg/kg/injection, schedule: Q01DX009 (ip), vehicle: saline with Tween-80): 6 of 6

O=C(O)CCN1C(=O)c2ccccc2C1=O
survivor count (dose: 400.0 mg/kg/injection, schedule: Q01DX009 (ip), vehicle: saline with Tween-80): 4 of 6

CS(=O)(=O)Nc1ccc(Nc2c3ccccc3nc3cc(Cl)ccc23)cc1
T/C (dose: 22.0 mg/kg/injection, schedule: Q04DX003 (ip), vehicle: Klucel (hydroxypropylcellulose) (HPC)): 140 % of control [5 of 6 alive] | T/C (dose: 33.0 mg/kg/injection, schedule: Q04DX003 (ip), vehicle: Klucel (hydroxypropylcellulose) (HPC)): 145 % of control | survivor count (dose: 300.0 mg/kg/injection, schedule: Q04DX003 (ip), vehicle: saline): 5 of 6

C=CCC1CCSC1=O (stereo not drawn)
survivor count (dose: 200.0 mg/kg/injection, schedule: Q04DX003 (ip), vehicle: saline with Tween-80): 1 of 6 and 2 of 6 | survivor count [2]: 0 of 6

CCOC(=O)C(Cc1ccc(N(CCCl)CCCl)cc1)NP1(=O)NCCCO1 (stereo not drawn)
T/C (dose: 4.0 mg/kg/injection, schedule: Q04DX003 (ip), vehicle: Klucel (hydroxypropylcellulose) (HPC)): 126 % of control | T/C (dose: 6.0 mg/kg/injection, schedule: Q04DX003 (ip), vehicle: Klucel (hydroxypropylcellulose) (HPC)): 130 % of control | survivor count [3]: 6 of 6 | survivor count [4]: 5 of 6 | survivor count (dose: 200.0 mg/kg/injection, schedule: Q01DX009 (ip), vehicle: Klucel (hydroxypropylcellulose) (HPC)): 0 of 6

CCC(c1ccc(OC)cc1)C(NCC(=O)N/N=C/c1ccccc1[N+](=O)[O-])c1ccc(OC)cc1 (stereo not drawn)
survivor count (dose: 25.0 mg/kg/injection, schedule: Q01DX001 (ip), vehicle: saline with Tween-80): 6 of 6 | survivor count (dose: 50.0 mg/kg/injection, schedule: Q01DX001 (ip), vehicle: saline with Tween-80): 6 of 6

C=CC[n+]1cccc2ccccc21
survivor count [3]: 6 of 6

COc1cc2ccc3c(c2cc1OC)N(C)C(OC)c1cc2c(cc1-3)OCO2 (stereo not drawn)
T/C (dose: 40.0 mg/kg/injection, schedule: Q01DX009 (ip), vehicle: water): 136 % of control | T/C (dose: 80.0 mg/kg/injection, schedule: Q01DX009 (ip), vehicle: water): 145 % of control | T/C (dose: 120.0 mg/kg/injection, schedule: Q01DX009 (ip), vehicle: water): 145 % of control

COc1cc2c(c(OC)c1OC)-c1ccc(OC)c(=O)cc1[C@@H](NC(C)=O)CC2
T/C (dose: 0.06 mg/kg/injection, schedule: Q01DX009 (ip), vehicle: water): 146 % of control | T/C (dose: 0.08 mg/kg/injection, schedule: Q01DX010 (ip), vehicle: saline): 136 % of control | survivor count (dose: 0.5 mg/kg/injection, schedule: Q01DX009 (ip), vehicle: water): 6 of 6 | survivor count (dose: 1.0 mg/kg/injection, schedule: Q01DX009 (ip), vehicle: water): 2 of 6 | T/C (dose: 63.0 micrograms/kg/injection, schedule: Q01DX009 (ip), vehicle: saline): 130 % of control | T/C (dose: 125.0 micrograms/kg/injection, schedule: Q01DX009 (ip), vehicle: saline): 141 % of control

CCOP(=S)(N1CC1(C)C)N1CC1(C)C (stereo not drawn)
survivor count [2]: 0 of 6 | survivor count (dose: 600.0 mg/kg/injection, schedule: Q04DX003 (ip), vehicle: saline with Tween-80): 0 of 6

Nc1nc(=O)c2[nH]cnc2n1O
survivor count (dose: 40.0 mg/kg/injection, schedule: Q04DX003 (ip), vehicle: saline with Tween-80): 3 of 6 | survivor count (dose: 55.0 mg/kg/injection, schedule: Q01DX009 (ip), vehicle: saline): 5 of 6 | survivor count (dose: 60.0 mg/kg/injection, schedule: Q04DX003 (ip), vehicle: saline with Tween-80): 1 of 6 | survivor count (dose: 90.0 mg/kg/injection, schedule: Q04DX003 (ip), vehicle: saline with Tween-80): 0 of 6

O=C(NCc1cc(CNC(=O)c2cccc(O)c2O)cc(CNC(=O)c2cccc(O)c2O)c1)c1cccc(O)c1O
survivor count (dose: 12.5 mg/kg/injection, schedule: Q01DX005 (ip), vehicle: saline with Tween-80): 2 of 5 | survivor count (dose: 25.0 mg/kg/injection, schedule: Q01DX005 (ip), vehicle: saline with Tween-80): 2 of 5 | survivor count (dose: 50.0 mg/kg/injection, schedule: Q01DX005 (ip), vehicle: saline with Tween-80): 3 of 5

c1ccc([B-]2([C+]3CCCCC3)N3CCCCC3C3CCCCN32)cc1 (stereo not drawn)
survivor count [3]: 4 of 6 | survivor count [4]: 0 of 6

Oc1ccc(Br)c2cccnc12
survivor count (dose: 400.0 mg/kg/injection, schedule: Q01DX010 (ip), vehicle: saline): 2 of 6

O=C1OC2CCC3C1C3C2Br (stereo not drawn)
survivor count (dose: 105.0 mg/kg/injection, schedule: Q04DX003 (ip), vehicle: Klucel (hydroxypropylcellulose) (HPC)): 0 of 6

CCOC(=O)C(C#N)C(C(C)=O)C(=O)OCC (stereo not drawn)
survivor count [1]: 6 of 6

CCc1nc2ccccc2c(=O)n1C
survivor count [1]: 6 of 6
